Experimental data taken from the supplement of paper PMC10849652.
The other results are listed elsewhere or left out.

Chains of the proteins cited; added tags and fusions are not shown. Lines headed by an entry give the natural chain unless they say otherwise; changes in a name come on top.
UniProt O43402: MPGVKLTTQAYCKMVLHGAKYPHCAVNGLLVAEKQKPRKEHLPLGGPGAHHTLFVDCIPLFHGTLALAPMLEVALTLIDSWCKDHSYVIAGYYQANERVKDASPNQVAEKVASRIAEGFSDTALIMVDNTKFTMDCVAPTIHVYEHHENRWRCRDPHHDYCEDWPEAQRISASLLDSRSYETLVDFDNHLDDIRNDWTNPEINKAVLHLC
UniProt O15371, whole entry, looked up: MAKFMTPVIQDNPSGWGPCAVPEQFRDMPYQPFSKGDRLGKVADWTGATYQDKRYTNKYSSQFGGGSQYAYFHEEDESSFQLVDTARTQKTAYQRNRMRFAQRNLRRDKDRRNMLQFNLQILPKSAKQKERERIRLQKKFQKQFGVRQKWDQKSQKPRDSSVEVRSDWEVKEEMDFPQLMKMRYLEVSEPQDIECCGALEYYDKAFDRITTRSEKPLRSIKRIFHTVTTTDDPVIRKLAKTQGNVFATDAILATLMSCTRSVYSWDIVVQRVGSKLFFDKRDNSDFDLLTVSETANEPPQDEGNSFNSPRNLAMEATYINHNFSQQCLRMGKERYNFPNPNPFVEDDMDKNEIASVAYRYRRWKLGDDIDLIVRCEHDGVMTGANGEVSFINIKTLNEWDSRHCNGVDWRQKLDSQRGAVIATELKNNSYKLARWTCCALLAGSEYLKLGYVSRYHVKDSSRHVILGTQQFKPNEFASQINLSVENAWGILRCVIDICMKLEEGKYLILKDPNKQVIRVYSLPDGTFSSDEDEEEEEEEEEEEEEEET
UniProt Q14240, whole entry, looked up: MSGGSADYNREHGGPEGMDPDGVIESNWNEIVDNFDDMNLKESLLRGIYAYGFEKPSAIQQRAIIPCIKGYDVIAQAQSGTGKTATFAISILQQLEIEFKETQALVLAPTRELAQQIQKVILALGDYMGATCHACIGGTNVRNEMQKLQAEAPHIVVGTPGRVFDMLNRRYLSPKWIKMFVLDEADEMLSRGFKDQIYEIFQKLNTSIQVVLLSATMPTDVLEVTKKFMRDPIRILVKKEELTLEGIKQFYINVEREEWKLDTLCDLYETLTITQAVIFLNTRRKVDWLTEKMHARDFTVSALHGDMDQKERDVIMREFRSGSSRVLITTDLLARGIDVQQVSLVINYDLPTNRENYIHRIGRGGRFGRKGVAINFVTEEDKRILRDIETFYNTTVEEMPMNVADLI
UniProt Q92979: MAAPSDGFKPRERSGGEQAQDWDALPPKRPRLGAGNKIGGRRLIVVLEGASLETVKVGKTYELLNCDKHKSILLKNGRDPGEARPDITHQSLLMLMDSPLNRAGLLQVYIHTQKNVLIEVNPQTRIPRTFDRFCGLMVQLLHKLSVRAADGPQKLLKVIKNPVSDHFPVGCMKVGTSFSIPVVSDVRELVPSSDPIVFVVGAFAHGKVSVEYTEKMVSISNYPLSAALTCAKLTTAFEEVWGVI
UniProt Q9P2K8: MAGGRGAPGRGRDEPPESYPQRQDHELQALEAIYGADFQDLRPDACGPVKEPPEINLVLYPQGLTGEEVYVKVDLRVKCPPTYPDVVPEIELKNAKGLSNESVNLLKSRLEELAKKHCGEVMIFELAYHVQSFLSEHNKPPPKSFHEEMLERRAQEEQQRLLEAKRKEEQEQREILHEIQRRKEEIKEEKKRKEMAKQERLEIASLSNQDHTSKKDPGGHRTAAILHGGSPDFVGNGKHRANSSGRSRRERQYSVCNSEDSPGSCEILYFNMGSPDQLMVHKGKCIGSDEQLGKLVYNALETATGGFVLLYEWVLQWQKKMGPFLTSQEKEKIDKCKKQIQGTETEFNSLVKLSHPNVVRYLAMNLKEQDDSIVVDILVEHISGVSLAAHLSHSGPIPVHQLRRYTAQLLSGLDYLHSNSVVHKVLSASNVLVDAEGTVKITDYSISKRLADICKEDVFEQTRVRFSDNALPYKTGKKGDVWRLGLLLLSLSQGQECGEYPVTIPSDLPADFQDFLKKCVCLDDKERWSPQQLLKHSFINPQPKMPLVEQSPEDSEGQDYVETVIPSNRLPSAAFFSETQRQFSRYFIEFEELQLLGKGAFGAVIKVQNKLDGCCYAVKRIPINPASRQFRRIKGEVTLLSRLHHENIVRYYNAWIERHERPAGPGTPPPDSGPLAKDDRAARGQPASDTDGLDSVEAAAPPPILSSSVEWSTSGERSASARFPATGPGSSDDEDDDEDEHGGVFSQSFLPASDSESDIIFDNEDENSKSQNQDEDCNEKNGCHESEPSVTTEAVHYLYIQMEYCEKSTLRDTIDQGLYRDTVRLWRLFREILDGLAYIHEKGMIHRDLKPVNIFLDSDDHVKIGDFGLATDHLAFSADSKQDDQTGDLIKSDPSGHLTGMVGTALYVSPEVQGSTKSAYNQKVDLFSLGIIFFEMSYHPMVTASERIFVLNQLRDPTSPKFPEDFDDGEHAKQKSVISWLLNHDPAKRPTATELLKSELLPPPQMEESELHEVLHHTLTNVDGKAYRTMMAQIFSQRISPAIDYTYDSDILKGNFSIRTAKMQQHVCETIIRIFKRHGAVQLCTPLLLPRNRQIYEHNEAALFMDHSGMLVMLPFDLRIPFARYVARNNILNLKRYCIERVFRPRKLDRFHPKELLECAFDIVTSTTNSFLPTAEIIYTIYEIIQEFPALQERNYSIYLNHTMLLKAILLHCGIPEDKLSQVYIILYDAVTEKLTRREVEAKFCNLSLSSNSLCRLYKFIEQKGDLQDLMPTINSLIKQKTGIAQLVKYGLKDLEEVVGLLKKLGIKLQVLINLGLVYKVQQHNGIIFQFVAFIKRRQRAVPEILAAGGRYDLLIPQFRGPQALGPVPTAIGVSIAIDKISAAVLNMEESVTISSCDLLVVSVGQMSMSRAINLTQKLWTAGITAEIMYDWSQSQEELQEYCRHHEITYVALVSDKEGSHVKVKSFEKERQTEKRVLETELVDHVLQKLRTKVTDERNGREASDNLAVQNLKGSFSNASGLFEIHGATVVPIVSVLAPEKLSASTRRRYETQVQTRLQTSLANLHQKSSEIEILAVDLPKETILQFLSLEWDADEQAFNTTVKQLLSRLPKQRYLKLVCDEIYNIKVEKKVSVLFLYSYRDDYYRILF
UniProt Q6ZTU2, whole entry, looked up: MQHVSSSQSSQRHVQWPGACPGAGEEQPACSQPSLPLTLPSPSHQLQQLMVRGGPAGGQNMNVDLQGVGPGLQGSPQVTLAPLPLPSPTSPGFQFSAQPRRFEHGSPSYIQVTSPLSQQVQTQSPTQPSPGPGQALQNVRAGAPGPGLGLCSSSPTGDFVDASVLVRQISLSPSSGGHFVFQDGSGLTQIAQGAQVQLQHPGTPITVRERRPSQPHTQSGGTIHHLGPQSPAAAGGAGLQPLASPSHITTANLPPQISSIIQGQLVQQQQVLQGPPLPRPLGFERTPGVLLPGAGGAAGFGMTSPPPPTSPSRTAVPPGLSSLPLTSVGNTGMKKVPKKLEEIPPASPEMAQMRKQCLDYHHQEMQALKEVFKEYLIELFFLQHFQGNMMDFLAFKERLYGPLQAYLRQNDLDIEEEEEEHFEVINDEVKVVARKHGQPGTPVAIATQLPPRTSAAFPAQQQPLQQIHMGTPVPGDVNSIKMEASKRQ
UniProt Q15717, whole entry, looked up: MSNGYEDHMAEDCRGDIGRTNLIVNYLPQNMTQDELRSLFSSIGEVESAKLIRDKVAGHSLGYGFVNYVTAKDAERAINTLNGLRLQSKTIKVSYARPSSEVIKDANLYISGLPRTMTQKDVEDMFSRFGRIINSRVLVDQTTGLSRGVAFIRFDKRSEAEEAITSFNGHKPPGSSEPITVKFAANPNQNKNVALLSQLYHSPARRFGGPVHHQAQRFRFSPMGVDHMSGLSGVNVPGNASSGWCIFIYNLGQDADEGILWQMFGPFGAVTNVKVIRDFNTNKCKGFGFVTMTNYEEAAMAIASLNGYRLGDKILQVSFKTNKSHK
UniProt Q92889: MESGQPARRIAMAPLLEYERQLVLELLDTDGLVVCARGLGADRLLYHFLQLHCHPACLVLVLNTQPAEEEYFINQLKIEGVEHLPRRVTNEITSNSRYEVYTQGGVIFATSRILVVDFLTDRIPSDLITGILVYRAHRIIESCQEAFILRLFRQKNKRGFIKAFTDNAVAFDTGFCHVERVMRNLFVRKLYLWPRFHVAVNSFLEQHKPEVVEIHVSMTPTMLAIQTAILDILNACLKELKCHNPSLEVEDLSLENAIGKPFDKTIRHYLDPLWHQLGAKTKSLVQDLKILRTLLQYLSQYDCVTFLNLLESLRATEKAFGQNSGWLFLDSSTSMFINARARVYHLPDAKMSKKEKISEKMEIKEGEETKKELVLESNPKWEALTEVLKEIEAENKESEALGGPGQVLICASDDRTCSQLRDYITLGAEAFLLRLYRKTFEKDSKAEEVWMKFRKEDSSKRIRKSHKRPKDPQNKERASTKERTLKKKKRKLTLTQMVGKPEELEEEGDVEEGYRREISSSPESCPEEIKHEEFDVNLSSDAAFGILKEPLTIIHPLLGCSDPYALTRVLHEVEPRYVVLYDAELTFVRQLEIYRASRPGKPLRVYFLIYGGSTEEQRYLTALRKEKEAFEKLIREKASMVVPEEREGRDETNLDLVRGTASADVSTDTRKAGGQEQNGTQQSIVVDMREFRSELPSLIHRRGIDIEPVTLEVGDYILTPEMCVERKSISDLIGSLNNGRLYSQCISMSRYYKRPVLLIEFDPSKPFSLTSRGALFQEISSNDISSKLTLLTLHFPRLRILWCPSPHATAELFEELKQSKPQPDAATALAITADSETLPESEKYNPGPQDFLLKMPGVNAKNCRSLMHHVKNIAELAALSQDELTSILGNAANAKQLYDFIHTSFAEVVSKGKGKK
UniProt Q6IA86: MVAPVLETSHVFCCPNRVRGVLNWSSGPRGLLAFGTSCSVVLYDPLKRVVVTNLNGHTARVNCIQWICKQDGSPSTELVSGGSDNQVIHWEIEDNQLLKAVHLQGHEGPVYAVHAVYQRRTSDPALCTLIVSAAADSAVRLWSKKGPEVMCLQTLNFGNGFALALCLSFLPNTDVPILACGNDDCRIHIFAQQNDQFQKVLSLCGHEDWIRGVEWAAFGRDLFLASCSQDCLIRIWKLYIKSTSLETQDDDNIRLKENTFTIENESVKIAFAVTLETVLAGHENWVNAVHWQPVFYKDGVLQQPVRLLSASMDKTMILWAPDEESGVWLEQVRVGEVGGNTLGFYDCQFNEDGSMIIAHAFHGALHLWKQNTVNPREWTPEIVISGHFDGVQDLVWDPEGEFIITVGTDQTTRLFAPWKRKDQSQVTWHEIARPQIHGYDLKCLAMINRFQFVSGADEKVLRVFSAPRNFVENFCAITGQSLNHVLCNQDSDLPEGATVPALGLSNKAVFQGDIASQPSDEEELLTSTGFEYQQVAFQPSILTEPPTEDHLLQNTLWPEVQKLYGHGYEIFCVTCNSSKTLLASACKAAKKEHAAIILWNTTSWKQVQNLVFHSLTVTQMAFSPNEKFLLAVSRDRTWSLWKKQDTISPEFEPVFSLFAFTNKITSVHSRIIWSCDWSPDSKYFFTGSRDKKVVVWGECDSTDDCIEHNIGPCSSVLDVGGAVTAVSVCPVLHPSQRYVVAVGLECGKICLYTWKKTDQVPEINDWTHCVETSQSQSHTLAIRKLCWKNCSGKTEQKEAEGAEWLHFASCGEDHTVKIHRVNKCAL
UniProt Q15369, whole entry, looked up: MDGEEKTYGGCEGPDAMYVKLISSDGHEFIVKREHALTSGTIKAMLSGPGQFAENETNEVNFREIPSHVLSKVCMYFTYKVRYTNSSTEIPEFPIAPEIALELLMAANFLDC
UniProt P41214: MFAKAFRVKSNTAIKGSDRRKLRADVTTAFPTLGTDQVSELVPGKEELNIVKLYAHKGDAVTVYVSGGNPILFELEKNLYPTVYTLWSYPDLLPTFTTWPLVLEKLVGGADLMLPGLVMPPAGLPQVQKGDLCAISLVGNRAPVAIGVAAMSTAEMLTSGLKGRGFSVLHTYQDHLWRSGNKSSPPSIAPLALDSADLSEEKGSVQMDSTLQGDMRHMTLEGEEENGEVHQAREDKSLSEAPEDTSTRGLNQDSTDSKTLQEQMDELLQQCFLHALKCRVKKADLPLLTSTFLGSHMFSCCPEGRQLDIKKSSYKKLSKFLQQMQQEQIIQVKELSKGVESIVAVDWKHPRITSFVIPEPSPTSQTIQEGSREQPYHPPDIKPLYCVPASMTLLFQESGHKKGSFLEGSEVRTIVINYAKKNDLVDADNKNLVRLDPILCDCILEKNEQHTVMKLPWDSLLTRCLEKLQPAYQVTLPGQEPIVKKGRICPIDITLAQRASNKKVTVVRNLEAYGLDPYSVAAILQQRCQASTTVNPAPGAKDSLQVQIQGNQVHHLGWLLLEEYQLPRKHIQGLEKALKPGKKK

The targets below were run with Cc1ncc(-c2ccnc(Nc3ccc(S(C)(=O)=O)cc3)n2)n1C(C)C (assay: log2 fold change, soluble protein after heating vs DMSO (PISA); higher = thermal stabilisation; K562 lysate, 10 uM; active = over 0.2 and 3.5 SD of the protein, either way, in both replicates (recomputed)).
How it was run: (§1)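 K562 pellets were dounce-homogenised in PBS pH 7.4 with 1 mM MgCl2, and the crude extract at 1 mg/mL protein was treated with 10 μM compound for 30 min. Aliquots were heated for 3 min across 48°C-58°C, pooled, and brought to 0.5% NP-40 at 4°C; soluble protein was the supernatant after 21,000xg for 90 min. Soluble protein was quantified by TMTpro 16plex LC-MS/MS with channel sums equalised, and reported as log2 fold change in thermal stability against DMSO controls, with values from duplicates.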

log2 fold change, inactive:
ELOVL6 (UniProt Q9H5J4) -0.043
EMC8 (UniProt O43402) -0.034
ERCC3 (UniProt P19447) 0.027
EIF3D (UniProt O15371) -0.013
ERAL1 (UniProt O75616) 0.003
EIF4A2 isoform 2 (UniProt Q14240) -0.014
ERC1 (UniProt X6RLX0) -0.008
EMG1 (UniProt Q92979) 0.019
ENPP3 (UniProt O14638) 0.133
EIF2S3 (UniProt P41091) 0.017
EIF2B2 (UniProt P49770) -0.019
ELMO2 (UniProt Q96JJ3) -0.116
EPB41 (UniProt P11171) -0.007
EIF2AK4 (UniProt Q9P2K8) -0.001
EP400P1 isoform 6 (UniProt Q6ZTU2) -0.026
ELMOD2 (UniProt Q8IZ81) -0.072
ELAVL4 (UniProt P26378) 0.092
ENGASE (UniProt Q8NFI3) -0.034
EPM2AIP1 (UniProt Q7L775) -0.04
ELF1 (UniProt P32519) 0.05
EIF4E2 (UniProt O60573) 0.033
EIF5A isoform 2 (UniProt P63241) 0.013
EIF4EBP2 (UniProt Q13542) 0.097
ELMO1 (UniProt Q92556) 0.038
ENO2 (UniProt P09104) 0.025
ELAVL1 isoform 2 (UniProt Q15717) -0.009
EMD (UniProt P50402) -0.007
ERCC4 (UniProt Q92889) -0.05
EIF2B4 isoform 2 (UniProt Q9UI10) 0.003
EOGT (UniProt Q5NDL2) 0.018
ELP2 isoform 6 (UniProt Q6IA86) -0.014
EIF4H (UniProt Q15056) -0.07
EPB41L3 (UniProt Q9Y2J2) 0.009
ELOC (UniProt Q15369) 0.06
EIF2D (UniProt P41214) -0.009

Each target was assayed with Cn1cc(-c2ccc3c(c2)CCN3C(=O)Cc2cccc(C(F)(F)F)c2)c2c(N)ncnc21 in the same assay as above.
How it was run: as §1

log2 fold change, inactive:
ELOVL6 (UniProt Q9H5J4) 0.169
EMC8 (UniProt O43402) -0.05
ERCC3 (UniProt P19447) 0.033
EIF3D (UniProt O15371) 0.05
ERAL1 (UniProt O75616) 0.018
EIF4A2 isoform 2 (UniProt Q14240) 0.006
ERC1 (UniProt X6RLX0) 0.004
EMG1 (UniProt Q92979) 0.022
ENPP3 (UniProt O14638) 0.008
EIF2S3 (UniProt P41091) -0.014
EIF2B2 (UniProt P49770) -0.005
ELMO2 (UniProt Q96JJ3) -0.078
EPB41 (UniProt P11171) 0.031
EIF2AK4 (UniProt Q9P2K8) 0.068
EP400P1 isoform 6 (UniProt Q6ZTU2) 0.052
ELMOD2 (UniProt Q8IZ81) 0.001
ELAVL4 (UniProt P26378) 0.039
ENGASE (UniProt Q8NFI3) 0.028
EPM2AIP1 (UniProt Q7L775) 0.029
ELF1 (UniProt P32519) 0.048
EIF4E2 (UniProt O60573) 0.005
EIF5A isoform 2 (UniProt P63241) 0.004
EIF4EBP2 (UniProt Q13542) -0.062
ELMO1 (UniProt Q92556) -0.135
ENO2 (UniProt P09104) 0
ELAVL1 isoform 2 (UniProt Q15717) 0.037
EMD (UniProt P50402) 0.003
ERCC4 (UniProt Q92889) 0.033
EIF2B4 isoform 2 (UniProt Q9UI10) 0.011
EOGT (UniProt Q5NDL2) -0.033
ELP2 isoform 6 (UniProt Q6IA86) 0.017
EIF4H (UniProt Q15056) 0.006
EPB41L3 (UniProt Q9Y2J2) 0.015
ELOC (UniProt Q15369) -0.01
EIF2D (UniProt P41214) 0.002
